From the supplement of paper PMC12819154, “High-throughput peptide-centric local stability assay extends protein–ligand identification to membrane proteins, tissues and bacteria” (Nature Structural & Molecular Biology, 2025)
The list shows a part of the results. Small differences around the control level are noise.

Protein sequences, listed by entry. Tags and fused reporters are not part of them. Lines headed by an entry give the natural chain unless they say otherwise; changes in a name come on top.
UniProt Q03113, whole entry: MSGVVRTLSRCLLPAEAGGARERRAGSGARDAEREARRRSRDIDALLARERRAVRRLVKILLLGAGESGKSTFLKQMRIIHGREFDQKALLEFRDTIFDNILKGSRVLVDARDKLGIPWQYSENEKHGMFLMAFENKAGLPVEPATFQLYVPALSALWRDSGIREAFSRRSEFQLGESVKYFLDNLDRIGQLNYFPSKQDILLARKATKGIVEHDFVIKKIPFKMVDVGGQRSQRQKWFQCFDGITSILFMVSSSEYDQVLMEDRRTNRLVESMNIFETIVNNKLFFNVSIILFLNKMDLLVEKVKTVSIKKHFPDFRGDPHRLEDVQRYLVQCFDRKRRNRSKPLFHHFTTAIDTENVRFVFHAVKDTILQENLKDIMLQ
UniProt Q10570: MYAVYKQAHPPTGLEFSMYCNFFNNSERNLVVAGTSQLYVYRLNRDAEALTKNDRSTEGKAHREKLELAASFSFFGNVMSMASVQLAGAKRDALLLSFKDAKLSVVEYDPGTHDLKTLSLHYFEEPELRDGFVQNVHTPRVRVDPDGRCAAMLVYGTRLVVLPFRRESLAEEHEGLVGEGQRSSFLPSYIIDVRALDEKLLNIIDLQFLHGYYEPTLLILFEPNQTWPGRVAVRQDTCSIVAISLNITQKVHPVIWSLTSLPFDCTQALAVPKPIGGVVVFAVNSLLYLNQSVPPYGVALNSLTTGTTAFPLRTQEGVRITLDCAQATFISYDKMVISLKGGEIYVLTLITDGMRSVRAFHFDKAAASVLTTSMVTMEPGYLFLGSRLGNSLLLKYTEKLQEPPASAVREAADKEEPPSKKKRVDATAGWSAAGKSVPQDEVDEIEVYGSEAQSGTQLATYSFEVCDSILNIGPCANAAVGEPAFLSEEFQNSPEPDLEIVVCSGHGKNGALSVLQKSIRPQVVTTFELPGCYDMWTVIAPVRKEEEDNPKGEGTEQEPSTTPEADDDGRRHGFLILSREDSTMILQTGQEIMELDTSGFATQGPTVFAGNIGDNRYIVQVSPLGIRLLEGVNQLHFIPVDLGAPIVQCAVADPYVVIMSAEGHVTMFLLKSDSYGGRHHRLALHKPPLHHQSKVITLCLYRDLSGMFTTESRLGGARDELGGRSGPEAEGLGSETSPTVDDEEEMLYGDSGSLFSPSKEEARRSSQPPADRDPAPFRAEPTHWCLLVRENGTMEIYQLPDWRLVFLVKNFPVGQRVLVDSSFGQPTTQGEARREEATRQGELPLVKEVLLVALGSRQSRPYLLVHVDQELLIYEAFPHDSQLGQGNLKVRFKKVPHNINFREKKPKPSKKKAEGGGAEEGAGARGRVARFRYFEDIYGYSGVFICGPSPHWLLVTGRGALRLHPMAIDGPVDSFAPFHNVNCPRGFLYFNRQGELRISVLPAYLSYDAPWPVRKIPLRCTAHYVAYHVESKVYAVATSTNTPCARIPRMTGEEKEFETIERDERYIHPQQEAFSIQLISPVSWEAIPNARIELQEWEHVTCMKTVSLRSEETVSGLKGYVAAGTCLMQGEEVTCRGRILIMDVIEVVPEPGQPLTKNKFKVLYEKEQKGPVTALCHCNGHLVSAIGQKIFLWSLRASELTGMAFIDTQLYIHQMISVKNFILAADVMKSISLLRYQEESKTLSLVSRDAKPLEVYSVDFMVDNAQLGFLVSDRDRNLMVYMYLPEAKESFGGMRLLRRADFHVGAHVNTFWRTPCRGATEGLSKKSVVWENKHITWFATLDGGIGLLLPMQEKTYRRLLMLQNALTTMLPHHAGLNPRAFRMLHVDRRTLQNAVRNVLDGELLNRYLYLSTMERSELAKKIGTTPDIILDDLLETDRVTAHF
UniProt Q02818: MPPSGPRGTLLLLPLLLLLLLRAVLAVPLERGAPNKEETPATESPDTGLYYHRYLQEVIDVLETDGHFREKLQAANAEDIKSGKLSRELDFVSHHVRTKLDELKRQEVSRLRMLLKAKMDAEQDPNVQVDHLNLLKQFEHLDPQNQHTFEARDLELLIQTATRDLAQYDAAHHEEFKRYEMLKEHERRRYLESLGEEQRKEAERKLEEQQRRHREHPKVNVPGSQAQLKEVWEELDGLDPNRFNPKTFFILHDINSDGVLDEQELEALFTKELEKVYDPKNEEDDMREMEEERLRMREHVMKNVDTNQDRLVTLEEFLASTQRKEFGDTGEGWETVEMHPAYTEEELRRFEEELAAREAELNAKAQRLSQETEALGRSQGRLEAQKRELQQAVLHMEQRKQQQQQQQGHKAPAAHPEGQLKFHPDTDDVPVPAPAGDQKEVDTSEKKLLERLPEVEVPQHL
UniProt Q07666, whole entry: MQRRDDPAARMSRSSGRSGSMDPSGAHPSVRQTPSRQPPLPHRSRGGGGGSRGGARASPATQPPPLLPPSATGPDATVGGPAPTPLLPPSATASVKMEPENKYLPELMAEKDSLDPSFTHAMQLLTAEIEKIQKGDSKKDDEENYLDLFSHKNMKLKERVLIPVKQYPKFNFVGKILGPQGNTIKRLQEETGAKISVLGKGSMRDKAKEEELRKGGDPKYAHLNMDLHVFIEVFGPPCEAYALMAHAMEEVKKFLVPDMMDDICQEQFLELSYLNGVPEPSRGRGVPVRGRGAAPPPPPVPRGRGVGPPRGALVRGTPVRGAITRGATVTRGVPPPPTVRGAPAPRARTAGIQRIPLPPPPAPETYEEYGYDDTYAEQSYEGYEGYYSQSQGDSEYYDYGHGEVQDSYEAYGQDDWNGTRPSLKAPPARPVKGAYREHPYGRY
UniProt Q12766: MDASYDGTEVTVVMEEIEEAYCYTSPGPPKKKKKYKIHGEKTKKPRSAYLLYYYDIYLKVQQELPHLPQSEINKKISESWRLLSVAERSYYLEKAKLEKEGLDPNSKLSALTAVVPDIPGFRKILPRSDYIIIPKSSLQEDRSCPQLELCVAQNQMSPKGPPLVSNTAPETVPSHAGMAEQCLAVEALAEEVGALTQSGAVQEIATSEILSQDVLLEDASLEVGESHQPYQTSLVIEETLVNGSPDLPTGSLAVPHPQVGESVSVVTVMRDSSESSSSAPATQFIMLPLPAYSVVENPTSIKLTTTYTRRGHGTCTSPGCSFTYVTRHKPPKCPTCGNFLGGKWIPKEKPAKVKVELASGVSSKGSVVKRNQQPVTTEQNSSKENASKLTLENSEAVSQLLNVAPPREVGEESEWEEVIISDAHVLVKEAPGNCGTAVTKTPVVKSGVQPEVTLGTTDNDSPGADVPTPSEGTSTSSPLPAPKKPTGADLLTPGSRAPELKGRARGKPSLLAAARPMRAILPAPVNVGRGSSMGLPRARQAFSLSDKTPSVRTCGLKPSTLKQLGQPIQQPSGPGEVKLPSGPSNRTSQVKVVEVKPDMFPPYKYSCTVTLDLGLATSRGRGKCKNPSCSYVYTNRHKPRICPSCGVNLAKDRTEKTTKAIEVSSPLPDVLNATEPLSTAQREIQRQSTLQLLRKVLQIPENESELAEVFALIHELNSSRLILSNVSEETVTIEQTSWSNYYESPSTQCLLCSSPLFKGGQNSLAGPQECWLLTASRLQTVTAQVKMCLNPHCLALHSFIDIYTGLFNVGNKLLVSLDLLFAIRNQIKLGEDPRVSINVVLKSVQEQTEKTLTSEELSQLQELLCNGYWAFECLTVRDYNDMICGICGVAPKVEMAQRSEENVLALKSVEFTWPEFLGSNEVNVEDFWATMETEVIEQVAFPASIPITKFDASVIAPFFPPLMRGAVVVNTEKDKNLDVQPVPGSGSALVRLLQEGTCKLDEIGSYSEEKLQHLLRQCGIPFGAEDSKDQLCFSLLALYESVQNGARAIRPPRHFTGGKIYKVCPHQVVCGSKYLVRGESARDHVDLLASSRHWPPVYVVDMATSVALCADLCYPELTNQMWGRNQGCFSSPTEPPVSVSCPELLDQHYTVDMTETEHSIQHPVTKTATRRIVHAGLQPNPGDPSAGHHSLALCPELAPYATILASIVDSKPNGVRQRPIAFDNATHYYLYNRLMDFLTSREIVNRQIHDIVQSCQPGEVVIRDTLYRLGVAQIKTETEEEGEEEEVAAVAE
UniProt Q06265, whole entry: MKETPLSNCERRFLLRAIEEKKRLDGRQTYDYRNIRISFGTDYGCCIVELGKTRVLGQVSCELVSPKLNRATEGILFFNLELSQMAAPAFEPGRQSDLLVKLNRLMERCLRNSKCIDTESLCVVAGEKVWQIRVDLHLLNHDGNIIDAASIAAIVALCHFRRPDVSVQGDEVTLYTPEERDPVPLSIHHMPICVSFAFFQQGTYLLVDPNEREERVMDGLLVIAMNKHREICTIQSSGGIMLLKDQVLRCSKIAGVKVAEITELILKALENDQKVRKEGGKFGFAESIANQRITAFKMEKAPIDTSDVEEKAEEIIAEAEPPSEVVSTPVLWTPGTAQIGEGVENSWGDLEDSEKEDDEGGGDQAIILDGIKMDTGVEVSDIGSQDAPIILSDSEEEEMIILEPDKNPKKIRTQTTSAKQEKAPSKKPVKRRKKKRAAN
UniProt Q0P5N6: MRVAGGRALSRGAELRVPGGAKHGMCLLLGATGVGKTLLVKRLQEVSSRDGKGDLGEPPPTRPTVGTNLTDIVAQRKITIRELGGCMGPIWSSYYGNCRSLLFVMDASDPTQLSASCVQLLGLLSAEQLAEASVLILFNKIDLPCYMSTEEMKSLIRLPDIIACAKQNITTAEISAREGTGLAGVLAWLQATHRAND
UniProt Q13029: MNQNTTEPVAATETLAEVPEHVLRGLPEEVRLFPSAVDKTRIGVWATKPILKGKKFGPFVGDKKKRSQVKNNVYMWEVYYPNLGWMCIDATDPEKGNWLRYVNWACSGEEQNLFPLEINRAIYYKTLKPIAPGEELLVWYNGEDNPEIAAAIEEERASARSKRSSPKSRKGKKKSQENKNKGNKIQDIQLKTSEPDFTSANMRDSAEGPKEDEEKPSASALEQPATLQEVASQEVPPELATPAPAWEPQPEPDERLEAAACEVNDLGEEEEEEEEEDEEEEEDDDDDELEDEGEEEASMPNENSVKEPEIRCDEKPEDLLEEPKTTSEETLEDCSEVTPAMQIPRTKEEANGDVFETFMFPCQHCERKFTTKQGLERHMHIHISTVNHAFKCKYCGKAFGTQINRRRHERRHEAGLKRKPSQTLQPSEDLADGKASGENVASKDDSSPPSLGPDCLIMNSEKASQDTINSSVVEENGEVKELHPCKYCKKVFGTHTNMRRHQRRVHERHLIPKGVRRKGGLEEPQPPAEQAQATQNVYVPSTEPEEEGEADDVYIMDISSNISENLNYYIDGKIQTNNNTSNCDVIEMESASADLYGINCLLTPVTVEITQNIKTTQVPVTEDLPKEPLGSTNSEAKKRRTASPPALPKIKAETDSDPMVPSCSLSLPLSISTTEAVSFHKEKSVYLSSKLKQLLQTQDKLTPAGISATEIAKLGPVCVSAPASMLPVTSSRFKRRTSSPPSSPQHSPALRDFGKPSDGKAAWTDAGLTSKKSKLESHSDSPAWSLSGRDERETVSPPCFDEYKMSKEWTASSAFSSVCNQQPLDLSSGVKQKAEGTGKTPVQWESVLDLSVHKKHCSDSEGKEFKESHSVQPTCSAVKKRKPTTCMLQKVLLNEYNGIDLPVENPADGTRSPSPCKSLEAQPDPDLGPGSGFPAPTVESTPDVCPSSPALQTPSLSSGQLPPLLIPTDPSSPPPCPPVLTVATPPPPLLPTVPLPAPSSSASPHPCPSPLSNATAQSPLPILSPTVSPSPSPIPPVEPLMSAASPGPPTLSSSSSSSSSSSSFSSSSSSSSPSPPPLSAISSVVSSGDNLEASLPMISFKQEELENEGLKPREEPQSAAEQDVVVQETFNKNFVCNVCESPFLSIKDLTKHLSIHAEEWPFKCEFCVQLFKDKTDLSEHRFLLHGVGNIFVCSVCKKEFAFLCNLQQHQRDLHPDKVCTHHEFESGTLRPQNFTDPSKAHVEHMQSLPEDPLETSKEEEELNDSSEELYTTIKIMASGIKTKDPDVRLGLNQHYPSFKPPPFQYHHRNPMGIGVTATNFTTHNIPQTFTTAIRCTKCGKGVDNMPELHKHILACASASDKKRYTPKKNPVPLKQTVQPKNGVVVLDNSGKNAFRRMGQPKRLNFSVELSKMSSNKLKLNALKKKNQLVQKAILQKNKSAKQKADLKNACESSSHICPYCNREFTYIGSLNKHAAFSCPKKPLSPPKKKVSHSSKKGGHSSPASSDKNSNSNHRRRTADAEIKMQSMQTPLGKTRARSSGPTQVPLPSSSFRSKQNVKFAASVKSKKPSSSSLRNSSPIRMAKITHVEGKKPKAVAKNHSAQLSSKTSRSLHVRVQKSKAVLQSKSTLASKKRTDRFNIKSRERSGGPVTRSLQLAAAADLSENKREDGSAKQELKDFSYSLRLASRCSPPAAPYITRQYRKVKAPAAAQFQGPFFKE
UniProt Q08117: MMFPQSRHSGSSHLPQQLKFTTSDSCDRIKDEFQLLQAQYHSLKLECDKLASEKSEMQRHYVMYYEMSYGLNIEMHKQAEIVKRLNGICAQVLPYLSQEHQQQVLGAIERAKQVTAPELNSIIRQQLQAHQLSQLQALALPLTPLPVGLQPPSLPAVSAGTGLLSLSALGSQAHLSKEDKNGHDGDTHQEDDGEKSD

Compound: CN[C@@H]1C[C@H]2O[C@@](C)([C@@H]1OC)n1c3ccccc3c3c4c(c5c6ccccc6n2c5c31)C(=O)NC4 [staurosporine]
Assay: log2 fold change of tryptic peptide abundance, ligand vs vehicle (limited proteolysis) (log2 ratio); higher = more trypsin-susceptible (destabilized)
Conditions: ligand concentration: 20 uM; sample: K562 cleared lysate; digestion: 4 min, 22 C (HT-PELSA RT4min, Orbitrap Astral)

Target | log2 fold change
GNA12 (peptide sequence: CLLPAEAGGAR, peptide start residue: 11) (UniProt Q03113) | 0.0374
CPSF1 (peptide sequence: YIVQVSPLGIR, peptide start residue: 617) (UniProt Q10570) | -0.671
NUCB1 (peptide sequence: KLEEQQR, peptide start residue: 205) (UniProt Q02818) | 0.256
SOX4 (peptide sequence: HMADYPDYK, peptide start residue: 100) (UniProt Q06945) | 0.307
USP4 (peptide sequence: RDDEFYK, peptide start residue: 923) (UniProt Q13107) | 0.612
PAK1 (peptide sequence: SVIEPLPVTPTR, peptide start residue: 204) (UniProt Q13153) | 0.0207
UniProt Q06055 (peptide sequence: STSQLLSRPLSAVVLK, peptide start residue: 16) | 0.606
KHDRBS1 (peptide sequence: ILGPQGNTIKR, peptide start residue: 176) (UniProt Q07666) | 0.137
UniProt Q06730 (peptide sequence: NTLSHHEETLQHEK, peptide start residue: 197) | 0.455
OGDH (peptide sequence: SWDIFFR, peptide start residue: 75) (UniProt Q02218) | -0.105
IFRD2 (peptide sequence: LLPDFLLER, peptide start residue: 171) (UniProt Q12894) | 0.095
UniProt Q0P6D6 (peptide sequence: DQNFLSR, peptide start residue: 476) | -0.232
C1QBP (peptide sequence: AFVDFLSDEIKEERK, peptide start residue: 81) (UniProt Q07021) | 0.164
UniProt P98077 (peptide sequence: HLLLVDPEGVVR, peptide start residue: 532) | 0.0043
VAC14 (peptide sequence: AGLLNTSGTK, peptide start residue: 503) (UniProt Q08AM6) | -0.147
PPAT (peptide sequence: SGHCTACLTGK, peptide start residue: 500) (UniProt Q06203) | 0.977
PTPN12 (peptide sequence: NSDGAVTQNK, peptide start residue: 612) (UniProt Q05209) | -0.404
HNRNPA0 (peptide sequence: RGFGFVYFQNHDAADK, peptide start residue: 139) (UniProt Q13151) | -0.182
ZBTB17 (peptide sequence: AFVNVGDLSK, peptide start residue: 594) (UniProt Q13105) | -0.176
AKAP12 (peptide sequence: STPVIVSATTK, peptide start residue: 1483) (UniProt Q02952) | 0.347

In another format: results already given.
CPSF1 (peptide sequence: YIVQVSPLGIR, peptide start residue: 617) (UniProt Q10570)
  log2 fold change: -0.671
OGDH (peptide sequence: SWDIFFR, peptide start residue: 75) (UniProt Q02218)
  log2 fold change: -0.105
UniProt P98077 (peptide sequence: HLLLVDPEGVVR, peptide start residue: 532)
  log2 fold change: 0.0043

Remaining list, next part:

Target | log2 fold change
HMGXB3 (peptide sequence: QAFSLSDKTPSVR, peptide start residue: 540) (UniProt Q12766) | 0.428
EXOSC9 (peptide sequence: MKETPLSNCERR, peptide start residue: 1) (UniProt Q06265) | 0.232
COASY (peptide sequence: LASILTSAAR, peptide start residue: 22) (UniProt Q13057) | 0.125
UniProt Q0P5N6 (peptide sequence: EGTGLAGVLAWLQATHR, peptide start residue: 178) | -0.206
UniProt Q03181 (peptide sequence: CQCTTVETVR, peptide start residue: 249) | 0.303
CENPE (peptide sequence: ANLSLPYLQTK, peptide start residue: 2140) (UniProt Q02224) | 0.667
RAD51 (peptide sequence: KLEEAGFHTVEAVAYAPKK, peptide start residue: 40) (UniProt Q06609) | -0.143
TFAP4 (peptide sequence: AVIVKPVR, peptide start residue: 295) (UniProt Q01664) | -0.318
RING1 (peptide sequence: RSLRPDPNFDALISK, peptide start residue: 98) (UniProt Q06587) | 0.281
FLII (peptide sequence: MEATGVLPFVR, peptide start residue: 1) (UniProt Q13045) | 0.384
PRDM2 (peptide sequence: LNFSVELSK, peptide start residue: 1403) (UniProt Q13029) | -0.632
UniProt Q09028 (peptide sequence: EAAFDDAVEER, peptide start residue: 5) | -0.1
UniProt Q13106 (peptide sequence: VHTGEKPYECTECGK, peptide start residue: 538) | -0.136
SF3A3 (peptide sequence: YMEVSGNLRDLYDDKDGLR, peptide start residue: 50) (UniProt Q12874) | -0.617
GALK2 (peptide sequence: NLSKVELAEICAK, peptide start residue: 165) (UniProt Q01415) | -0.571
PPID (peptide sequence: EGLLSMANAGR, peptide start residue: 115) (UniProt Q08752) | -0.632
ACY1 (peptide sequence: VVNSILAFR, peptide start residue: 222) (UniProt Q03154) | -0.24
UniProt Q08117 (peptide sequence: FTTSDSCDR, peptide start residue: 20) | -0.144
GLO1 (peptide sequence: DFLLQQTMLR, peptide start residue: 29) (UniProt Q04760) | -0.102
ZNF616 (peptide sequence: ATQGHLTFK, peptide start residue: 2) (UniProt Q08AN1) | 0.308
